This is an account of results in patent US20200206266A1 (JULIUS MAXIMILIANS UNIVERSIT T W RZBURG, published 2020).

Protein sequences, listed by entry. Tags and fused reporters are not part of them. Lines headed by an entry give the natural chain unless they say otherwise; changes in a name come on top.
UniProt P36888: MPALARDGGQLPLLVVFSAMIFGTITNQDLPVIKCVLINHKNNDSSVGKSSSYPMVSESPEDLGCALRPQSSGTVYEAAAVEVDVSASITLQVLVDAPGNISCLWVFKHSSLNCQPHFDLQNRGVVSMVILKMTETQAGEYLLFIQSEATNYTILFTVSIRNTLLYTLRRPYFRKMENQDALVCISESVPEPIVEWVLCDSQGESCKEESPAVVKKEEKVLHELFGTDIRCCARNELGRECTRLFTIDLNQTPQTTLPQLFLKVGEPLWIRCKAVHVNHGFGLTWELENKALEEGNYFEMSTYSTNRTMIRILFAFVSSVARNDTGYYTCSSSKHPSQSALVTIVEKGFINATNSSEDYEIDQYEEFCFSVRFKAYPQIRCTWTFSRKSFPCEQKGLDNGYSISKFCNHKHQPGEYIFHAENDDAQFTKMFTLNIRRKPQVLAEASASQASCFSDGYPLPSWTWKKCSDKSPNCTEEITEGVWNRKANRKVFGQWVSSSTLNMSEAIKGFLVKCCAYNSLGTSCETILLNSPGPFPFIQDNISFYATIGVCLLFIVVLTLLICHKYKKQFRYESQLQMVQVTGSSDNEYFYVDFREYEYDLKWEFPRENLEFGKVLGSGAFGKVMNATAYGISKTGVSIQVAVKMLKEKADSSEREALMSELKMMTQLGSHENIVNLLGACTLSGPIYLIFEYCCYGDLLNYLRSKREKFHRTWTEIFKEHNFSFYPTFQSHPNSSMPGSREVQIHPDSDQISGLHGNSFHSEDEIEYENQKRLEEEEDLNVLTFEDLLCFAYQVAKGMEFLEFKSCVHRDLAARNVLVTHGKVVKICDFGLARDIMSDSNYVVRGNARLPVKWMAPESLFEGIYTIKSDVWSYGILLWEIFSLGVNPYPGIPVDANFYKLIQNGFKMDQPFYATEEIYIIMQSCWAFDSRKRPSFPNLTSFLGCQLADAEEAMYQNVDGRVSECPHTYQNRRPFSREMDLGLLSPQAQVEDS

No constants are given. Whether binding was seen depends on the method and setting. A result given as binding can be weak or reduced; the word gives no strength. Sequences can lack the tags named with a protein.

The assay has as its target FLT3 with internal tandem duplication (FLT3-ITD) (human) (UniProt P36888). Description: flow cytometry, staining of MOLM-13 and MV4;11 cells (FLT3-ITD+). In general terms: In flow cytometry, cells or beads pass a laser one at a time.

B1: mouse-anti-human-FLT3 mAb (clone 4G8, BD Pharmagin, BD Biosciences) (antibody, V domains shown)
VH: QVQLQQPGAELVKPGASLKLSCKSSGYTFTSYWMHWVRQRPGHGLEWIGEIDPSDSYKDYNQKFKDKATLTVDRSSNTAYMHLSSLTSDDSAVYYCARAITTTPFDFWGQGTTLTVSS
VL: DIVLTQSPATLSVTPGDSVSLSCRASQSISNNLHWYQQKSHESPRLLIKYASQSISGIPSRFSGSGSGTDFTLSINSVETEDFGVYFCQQSNTWPYTFGGGTKLEIKR
notes: Bought, fluorochrome-conjugated mouse antibody, used with a mouse IgG1 isotype control; also called anti-FLT3 mAb (4G8); anti-FLT3 4G8 mAb
B1: the binding result is “binds”.
